Source: the supplement of paper PMC10849652
The list shows a part of the results.

Chains of the proteins cited; added tags and fusions are not shown. Lines headed by an entry give the natural chain unless they say otherwise; changes in a name come on top.
UniProt Q01196, whole entry, looked up: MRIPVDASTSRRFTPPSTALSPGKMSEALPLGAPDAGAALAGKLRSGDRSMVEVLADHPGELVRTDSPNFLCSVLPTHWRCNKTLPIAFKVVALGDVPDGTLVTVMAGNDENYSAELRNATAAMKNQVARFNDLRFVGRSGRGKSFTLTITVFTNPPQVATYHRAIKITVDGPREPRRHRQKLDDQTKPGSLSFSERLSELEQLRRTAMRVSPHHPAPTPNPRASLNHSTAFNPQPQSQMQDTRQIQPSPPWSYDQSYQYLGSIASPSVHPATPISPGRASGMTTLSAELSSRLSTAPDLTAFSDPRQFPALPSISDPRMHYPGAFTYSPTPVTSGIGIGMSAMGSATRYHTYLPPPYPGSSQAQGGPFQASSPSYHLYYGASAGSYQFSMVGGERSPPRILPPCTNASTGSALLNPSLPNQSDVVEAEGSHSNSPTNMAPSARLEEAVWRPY
UniProt Q9Y3B9: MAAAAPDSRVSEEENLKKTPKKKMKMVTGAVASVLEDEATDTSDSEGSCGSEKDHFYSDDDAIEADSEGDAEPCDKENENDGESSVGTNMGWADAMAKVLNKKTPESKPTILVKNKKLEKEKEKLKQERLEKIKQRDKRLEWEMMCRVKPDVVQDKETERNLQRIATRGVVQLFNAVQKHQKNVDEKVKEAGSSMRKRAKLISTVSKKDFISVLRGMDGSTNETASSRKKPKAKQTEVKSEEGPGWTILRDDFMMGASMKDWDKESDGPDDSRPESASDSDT
UniProt P31949: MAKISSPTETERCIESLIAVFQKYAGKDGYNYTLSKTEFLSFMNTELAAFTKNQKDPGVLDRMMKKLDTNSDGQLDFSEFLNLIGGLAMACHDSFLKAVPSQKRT
UniProt Q9BRK5: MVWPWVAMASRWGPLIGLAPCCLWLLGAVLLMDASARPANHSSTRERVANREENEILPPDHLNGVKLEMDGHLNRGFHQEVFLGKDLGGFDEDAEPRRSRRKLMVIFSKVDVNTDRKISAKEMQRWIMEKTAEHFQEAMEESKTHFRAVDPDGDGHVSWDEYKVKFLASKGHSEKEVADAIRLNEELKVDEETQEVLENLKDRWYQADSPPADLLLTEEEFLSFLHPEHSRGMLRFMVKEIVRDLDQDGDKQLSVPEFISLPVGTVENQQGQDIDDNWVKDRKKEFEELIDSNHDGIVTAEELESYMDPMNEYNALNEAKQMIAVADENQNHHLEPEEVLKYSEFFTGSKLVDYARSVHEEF
UniProt Q99643: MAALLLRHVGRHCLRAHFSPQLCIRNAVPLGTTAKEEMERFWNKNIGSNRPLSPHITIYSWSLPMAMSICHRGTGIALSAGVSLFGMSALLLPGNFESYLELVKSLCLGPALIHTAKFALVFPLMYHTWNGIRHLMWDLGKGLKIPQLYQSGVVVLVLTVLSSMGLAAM
UniProt Q9NSI8: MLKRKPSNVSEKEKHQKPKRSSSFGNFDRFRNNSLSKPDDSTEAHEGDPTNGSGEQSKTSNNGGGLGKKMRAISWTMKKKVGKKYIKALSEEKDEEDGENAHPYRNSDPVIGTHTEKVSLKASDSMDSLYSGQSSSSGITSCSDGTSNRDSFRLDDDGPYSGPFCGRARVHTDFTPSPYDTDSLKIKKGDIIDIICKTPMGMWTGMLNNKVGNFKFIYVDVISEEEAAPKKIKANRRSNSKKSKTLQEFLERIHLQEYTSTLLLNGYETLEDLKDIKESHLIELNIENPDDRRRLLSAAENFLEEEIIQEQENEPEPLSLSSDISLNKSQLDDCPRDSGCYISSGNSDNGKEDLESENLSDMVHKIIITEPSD
UniProt Q99584: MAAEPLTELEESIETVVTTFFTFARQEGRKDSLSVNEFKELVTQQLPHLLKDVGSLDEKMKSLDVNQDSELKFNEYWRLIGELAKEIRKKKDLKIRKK
UniProt Q9BY50: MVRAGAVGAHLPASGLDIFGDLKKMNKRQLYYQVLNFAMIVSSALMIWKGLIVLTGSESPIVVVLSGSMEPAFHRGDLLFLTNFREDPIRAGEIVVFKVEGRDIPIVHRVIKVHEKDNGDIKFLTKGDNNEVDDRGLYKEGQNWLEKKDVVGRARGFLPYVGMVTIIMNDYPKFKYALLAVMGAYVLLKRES
UniProt Q9HB40: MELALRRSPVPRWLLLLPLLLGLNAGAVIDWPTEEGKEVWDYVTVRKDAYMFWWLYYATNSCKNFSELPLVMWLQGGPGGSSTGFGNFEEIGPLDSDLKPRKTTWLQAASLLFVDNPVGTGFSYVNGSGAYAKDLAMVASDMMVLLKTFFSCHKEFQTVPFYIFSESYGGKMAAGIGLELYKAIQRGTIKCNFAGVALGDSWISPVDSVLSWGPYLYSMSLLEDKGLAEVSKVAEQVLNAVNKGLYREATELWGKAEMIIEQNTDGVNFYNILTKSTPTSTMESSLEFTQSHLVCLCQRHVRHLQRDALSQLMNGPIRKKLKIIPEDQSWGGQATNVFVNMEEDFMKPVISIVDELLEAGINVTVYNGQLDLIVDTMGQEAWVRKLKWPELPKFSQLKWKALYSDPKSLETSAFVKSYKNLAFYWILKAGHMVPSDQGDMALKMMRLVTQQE
UniProt Q9UPN6: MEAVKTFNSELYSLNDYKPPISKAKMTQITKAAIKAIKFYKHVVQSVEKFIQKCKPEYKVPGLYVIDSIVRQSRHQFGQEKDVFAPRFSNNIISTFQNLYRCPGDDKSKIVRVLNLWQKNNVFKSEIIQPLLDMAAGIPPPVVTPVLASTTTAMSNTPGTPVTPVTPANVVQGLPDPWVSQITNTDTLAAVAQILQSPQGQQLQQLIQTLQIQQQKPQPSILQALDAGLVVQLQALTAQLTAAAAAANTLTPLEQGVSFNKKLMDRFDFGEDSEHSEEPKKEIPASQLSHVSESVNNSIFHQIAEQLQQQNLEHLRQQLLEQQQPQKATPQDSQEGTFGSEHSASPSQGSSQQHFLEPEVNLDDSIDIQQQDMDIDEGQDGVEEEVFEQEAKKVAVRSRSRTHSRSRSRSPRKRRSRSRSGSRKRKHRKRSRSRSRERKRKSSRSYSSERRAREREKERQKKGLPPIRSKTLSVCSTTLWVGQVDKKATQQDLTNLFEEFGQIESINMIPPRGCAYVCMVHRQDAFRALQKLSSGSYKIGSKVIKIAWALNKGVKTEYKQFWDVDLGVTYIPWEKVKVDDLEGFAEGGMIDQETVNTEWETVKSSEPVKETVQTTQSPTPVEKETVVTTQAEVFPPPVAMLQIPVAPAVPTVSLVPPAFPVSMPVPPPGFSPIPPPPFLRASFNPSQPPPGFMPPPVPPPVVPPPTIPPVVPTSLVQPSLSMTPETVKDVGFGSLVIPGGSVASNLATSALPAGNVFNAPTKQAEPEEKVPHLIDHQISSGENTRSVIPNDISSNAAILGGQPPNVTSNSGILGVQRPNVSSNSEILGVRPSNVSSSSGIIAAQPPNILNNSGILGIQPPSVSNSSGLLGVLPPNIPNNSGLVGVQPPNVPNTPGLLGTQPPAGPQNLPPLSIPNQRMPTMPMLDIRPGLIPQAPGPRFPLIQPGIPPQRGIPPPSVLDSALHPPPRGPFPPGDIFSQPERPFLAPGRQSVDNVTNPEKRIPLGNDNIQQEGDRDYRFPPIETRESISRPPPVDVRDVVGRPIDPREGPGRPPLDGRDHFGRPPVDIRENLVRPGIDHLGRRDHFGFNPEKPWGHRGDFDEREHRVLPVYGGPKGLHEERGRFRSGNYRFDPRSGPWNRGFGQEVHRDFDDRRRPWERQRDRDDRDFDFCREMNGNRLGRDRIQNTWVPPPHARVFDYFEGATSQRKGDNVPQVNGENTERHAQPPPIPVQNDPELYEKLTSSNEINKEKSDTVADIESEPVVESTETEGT
UniProt Q9UHR5: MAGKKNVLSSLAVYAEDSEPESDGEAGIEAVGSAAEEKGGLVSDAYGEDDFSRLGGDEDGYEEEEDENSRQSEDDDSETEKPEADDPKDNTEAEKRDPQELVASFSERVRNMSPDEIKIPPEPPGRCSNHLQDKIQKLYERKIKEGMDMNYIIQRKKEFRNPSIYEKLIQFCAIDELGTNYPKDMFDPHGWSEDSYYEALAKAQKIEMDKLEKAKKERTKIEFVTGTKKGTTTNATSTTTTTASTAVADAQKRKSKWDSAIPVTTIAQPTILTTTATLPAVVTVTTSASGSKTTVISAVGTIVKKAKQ
UniProt P25815: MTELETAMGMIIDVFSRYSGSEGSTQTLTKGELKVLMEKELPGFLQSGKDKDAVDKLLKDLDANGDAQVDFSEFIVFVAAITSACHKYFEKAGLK
UniProt Q96I15: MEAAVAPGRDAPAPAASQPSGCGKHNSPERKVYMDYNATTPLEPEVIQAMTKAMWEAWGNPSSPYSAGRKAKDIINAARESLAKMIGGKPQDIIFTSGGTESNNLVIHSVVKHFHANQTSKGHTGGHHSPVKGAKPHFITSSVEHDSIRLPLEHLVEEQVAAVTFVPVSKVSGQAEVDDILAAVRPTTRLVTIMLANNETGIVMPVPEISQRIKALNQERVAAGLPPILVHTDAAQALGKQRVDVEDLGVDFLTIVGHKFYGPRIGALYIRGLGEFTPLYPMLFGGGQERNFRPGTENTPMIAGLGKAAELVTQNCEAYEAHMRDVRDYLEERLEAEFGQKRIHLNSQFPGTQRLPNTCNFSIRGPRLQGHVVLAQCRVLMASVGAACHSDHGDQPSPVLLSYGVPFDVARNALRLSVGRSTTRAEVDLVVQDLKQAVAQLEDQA
UniProt Q9H446: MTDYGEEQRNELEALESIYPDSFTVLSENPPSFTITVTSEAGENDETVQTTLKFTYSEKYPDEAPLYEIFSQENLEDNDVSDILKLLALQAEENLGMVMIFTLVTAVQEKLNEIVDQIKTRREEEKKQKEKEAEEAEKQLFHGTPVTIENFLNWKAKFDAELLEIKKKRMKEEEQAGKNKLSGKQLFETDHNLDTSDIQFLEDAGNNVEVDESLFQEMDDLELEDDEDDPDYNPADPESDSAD
UniProt Q14108: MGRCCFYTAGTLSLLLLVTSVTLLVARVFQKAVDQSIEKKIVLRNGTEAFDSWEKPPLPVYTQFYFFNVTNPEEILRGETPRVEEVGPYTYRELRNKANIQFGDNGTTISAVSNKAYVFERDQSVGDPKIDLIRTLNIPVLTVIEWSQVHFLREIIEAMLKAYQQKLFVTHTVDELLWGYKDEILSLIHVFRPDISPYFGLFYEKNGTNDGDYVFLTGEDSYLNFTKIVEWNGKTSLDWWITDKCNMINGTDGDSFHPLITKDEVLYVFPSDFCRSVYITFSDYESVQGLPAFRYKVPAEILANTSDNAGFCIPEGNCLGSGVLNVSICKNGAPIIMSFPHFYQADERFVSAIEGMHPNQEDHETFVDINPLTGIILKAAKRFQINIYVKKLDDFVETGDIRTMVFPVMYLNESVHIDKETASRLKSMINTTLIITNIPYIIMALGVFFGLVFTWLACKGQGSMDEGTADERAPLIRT
UniProt Q9NQC3: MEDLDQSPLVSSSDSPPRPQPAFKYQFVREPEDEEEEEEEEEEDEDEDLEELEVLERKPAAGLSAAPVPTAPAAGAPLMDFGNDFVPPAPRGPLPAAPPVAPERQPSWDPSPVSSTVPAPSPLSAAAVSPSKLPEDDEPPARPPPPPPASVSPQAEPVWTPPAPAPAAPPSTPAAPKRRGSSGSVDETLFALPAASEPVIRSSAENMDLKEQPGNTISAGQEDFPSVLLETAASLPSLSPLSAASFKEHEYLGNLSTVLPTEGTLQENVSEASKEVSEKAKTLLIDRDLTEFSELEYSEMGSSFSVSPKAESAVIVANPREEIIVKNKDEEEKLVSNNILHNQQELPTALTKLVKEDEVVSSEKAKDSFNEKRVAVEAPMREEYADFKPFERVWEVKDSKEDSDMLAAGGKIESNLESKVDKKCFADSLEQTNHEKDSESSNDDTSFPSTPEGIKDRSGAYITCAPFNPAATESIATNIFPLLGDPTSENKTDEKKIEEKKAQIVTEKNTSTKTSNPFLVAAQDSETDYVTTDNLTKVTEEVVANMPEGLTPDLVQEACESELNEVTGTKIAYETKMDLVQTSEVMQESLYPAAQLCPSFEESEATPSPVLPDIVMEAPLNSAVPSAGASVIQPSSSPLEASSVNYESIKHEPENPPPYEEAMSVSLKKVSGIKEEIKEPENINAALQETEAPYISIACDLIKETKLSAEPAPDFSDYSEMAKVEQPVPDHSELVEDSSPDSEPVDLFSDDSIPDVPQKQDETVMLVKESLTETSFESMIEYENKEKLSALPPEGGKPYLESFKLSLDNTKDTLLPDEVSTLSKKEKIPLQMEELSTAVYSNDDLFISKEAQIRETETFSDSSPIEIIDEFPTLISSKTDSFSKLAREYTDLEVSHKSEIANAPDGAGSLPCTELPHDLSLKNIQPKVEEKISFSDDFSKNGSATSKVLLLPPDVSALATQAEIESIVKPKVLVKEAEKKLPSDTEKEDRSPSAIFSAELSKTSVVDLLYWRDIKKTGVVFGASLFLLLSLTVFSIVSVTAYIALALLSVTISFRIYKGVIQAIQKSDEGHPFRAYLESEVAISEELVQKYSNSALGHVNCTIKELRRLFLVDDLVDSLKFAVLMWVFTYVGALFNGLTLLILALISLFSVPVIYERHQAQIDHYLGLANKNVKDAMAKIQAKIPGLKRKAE

Assays:
Test in all cases: log2 fold change, soluble protein after heating vs DMSO (PISA); higher = thermal stabilisation; K562 cells, 10 uM, 30 min; active = over 0.2 and 3.5 SD of the protein, either way, in both replicates (recomputed)
[1] = compound: CC1=C(C=C(C=C1)NC(=O)C2=CC(=CC=C2)C(C)(C)C#N)NC3=CC4=C(C=C3)N=CN(C4=O)C
Method in brief: (§1)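 K562 cells (2×10^6 cells/mL) were treated with 10 μM compound for 30 min, and aliquots were heated for 3 min over 48°C-58°C. Pooled aliquots were extracted in PBS with 0.5% NP-40 at 4°C, and the supernatant after 21,000xg for 90 min was measured by TMTpro 16plex LC-MS/MS with channel sums equalised. Reported thermal stability, relative to control samples and from duplicates, is a log2 fold change.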

[2] = compound: CC1=C(C=C(C=C1)NC(=O)C2=CC(=CC=C2)N(C)C)NC(=O)C3=CC=C(C=C3)O
Method in brief: as §1

[3] = compound: CC1=CC=C(C=C1)SC2=C3C=C(SC3=CN=C2)C(=O)N
Method in brief: as §1

[4] = compound: CC1=NC(=CC=C1)C2=C(N=C(N2)C(C)(C)C)C3=CC4=NC=CN=C4C=C3
Method in brief: as §1

Nexturastat A = compound: CCCCN(Cc1ccc(C(=O)NO)cc1)C(=O)Nc1ccccc1 [Nexturastat A]
Method in brief: as §1

vemurafenib = compound: CCCS(=O)(=O)Nc1ccc(F)c(C(=O)c2c[nH]c3ncc(-c4ccc(Cl)cc4)cc23)c1F [vemurafenib]
Method in brief: as §1

[5] = compound: CCCS(=O)(=O)Nc1ccc(F)c(C(=O)c2c[nH]c3ncc(Cl)cc23)c1F
Method in brief: as §1

[6] = compound: CCCc1cc(C)[nH]c(=O)c1CNC(=O)c1cc(-c2ccnc(N3CCN(C)CC3)c2)cc2c1cnn2C(C)C
Method in brief: as §1

givinostat = compound: CCN(CC)Cc1ccc2cc(COC(=O)Nc3ccc(C(=O)NO)cc3)ccc2c1 [givinostat]
Method in brief: as §1

barasertib = compound: CCN(CCCOc1ccc2c(Nc3cc(CC(=O)Nc4cccc(F)c4)[nH]n3)ncnc2c1)CCOP(=O)(O)O [barasertib]
Method in brief: as §1

Measured: log2 fold change

SCAF1 (UniProt Q9H7N4)
inactive: [1] 0.004

SEC16A isoform 5 (UniProt O15027)
inactive: [1] -0.079 | [2] -0.042 | [3] 0.036 | [4] -0.001 | Nexturastat A 0.044 | vemurafenib 0.035 | [5] -0.031 | [6] 0.061 | givinostat 0.09 | barasertib 0.043

RUNX1 isoform 8 (UniProt Q01196)
inactive: [1] 0.236 | [2] 0.018 | [3] 0.059 | [4] -0.045 | Nexturastat A -0.231 | vemurafenib -0.026 | [5] 0.046 | [6] 0.088 | givinostat 0.076 | barasertib -0.058

RRP15 (UniProt Q9Y3B9)
inactive: [1] -0.029 | [2] -0.001 | [3] -0.03 | [4] -0.014 | Nexturastat A -0.026 | vemurafenib -0.028 | [5] -0.018 | [6] -0.015 | givinostat -0.012 | barasertib -0.056

S100A11 (UniProt P31949)
inactive: [1] 0.005 | [2] -0.013 | [3] 0.02 | [4] 0.12 | Nexturastat A 0.031 | vemurafenib 0.03 | [5] -0.001 | [6] -0.016 | givinostat -0.094 | barasertib 0.063

SDF4 (UniProt Q9BRK5)
inactive: [1] -0.047 | [2] -0.005 | [3] 0.04 | [4] -0.003 | Nexturastat A -0.041 | vemurafenib 0.024 | [5] -0.032 | [6] 0.031 | givinostat 0.015 | barasertib 0.009

SDHC (UniProt Q99643)
inactive: [1] 0.01 | [2] 0.023 | [3] -0.041 | [4] 0.023 | Nexturastat A -0.217 | vemurafenib 0.128 | [5] 0.038 | [6] -0.122 | givinostat -0.108 | barasertib -0.04

SEC24D isoform 2 (UniProt O94855)
inactive: [1] 0.076 | [2] -0.032 | [3] 0.023 | [4] -0.024 | Nexturastat A -0.088 | vemurafenib 0.024 | [5] 0.032 | [6] -0.036 | givinostat -0.036 | barasertib 0.032

SAMSN1 isoform 3 (UniProt Q9NSI8)
inactive: [1] 0.014 | [2] -0.011 | [3] 0.029 | [4] 0.017 | Nexturastat A -0.027 | vemurafenib -0.001 | [5] 0.029 | [6] 0 | givinostat 0.02 | barasertib 0.042

RSPRY1 (UniProt Q96DX4)
inactive: [1] 0.106 | [2] -0.026 | [3] -0.183 | [4] -0.035 | Nexturastat A -0.021 | vemurafenib 0.034 | [5] -0.031 | [6] -0.107 | givinostat -0.007 | barasertib -0.004

SCFD2 (UniProt Q8WU76)
inactive: [1] 0.014 | [2] -0.041 | [3] 0.072 | [4] 0.02 | Nexturastat A 0.024 | vemurafenib -0.022 | [5] 0.026 | [6] 0.071 | givinostat 0.036 | barasertib -0.012

RSRC2 (UniProt Q7L4I2)
inactive: [1] -0.048 | [2] 0.04 | [3] -0.058 | [4] 0 | Nexturastat A 0.015 | vemurafenib 0.007 | [5] 0.003 | [6] -0.063 | givinostat -0.013 | barasertib 0.01

S100A13 (UniProt Q99584)
inactive: [1] -0.026 | [2] 0.013 | [3] 0.032 | [4] 0.059 | Nexturastat A -0.14 | vemurafenib -0.018 | [5] 0.006 | [6] -0.042 | givinostat 0.028 | barasertib 0.007

SEC11C (UniProt Q9BY50)
inactive: [1] -0.003 | [2] -0.003 | [3] 0.035 | [4] 0.002 | Nexturastat A -0.053 | vemurafenib 0.041 | [5] 0.058 | [6] 0.06 | givinostat 0.048 | barasertib 0.031

RTN4IP1 (UniProt Q8WWV3)
inactive: [1] 0.253 | [2] -0.033 | [3] 0.294 | [4] 0.119 | Nexturastat A -0.061 | vemurafenib 0.034 | [5] -0.041 | [6] -0.218 | givinostat -0.081 | barasertib 0.031

SBNO1 (UniProt A3KN83)
inactive: [1] -0.022 | [2] -0.024 | [3] -0.014 | [4] 0.033 | Nexturastat A -0.074 | vemurafenib 0.006 | [5] 0.023 | [6] -0.004 | givinostat -0.006 | barasertib 0.037

RSBN1L (UniProt Q6PCB5)
inactive: [1] -0.019 | [2] -0.036 | [3] -0.065 | [4] -0.193 | Nexturastat A 0.332 | vemurafenib -0.114 | [5] -0.067 | [6] 0.148 | givinostat -0.009 | barasertib -0.115

SDE2 (UniProt Q6IQ49)
inactive: [1] -0.026 | [2] 0.013 | [3] 0 | [4] 0.012 | Nexturastat A 0.028 | vemurafenib 0.001 | [5] -0.002 | [6] -0.038 | givinostat 0.01 | barasertib -0.01

RUVBL2 (UniProt Q9Y230)
inactive: [1] 0.04 | [2] 0.024 | [3] -0.009 | [4] -0.013 | Nexturastat A -0.044 | vemurafenib 0.033 | [5] -0.021 | [6] -0.007 | givinostat -0.016 | barasertib -0.021

SCPEP1 (UniProt Q9HB40)
inactive: [1] -0.003 | [2] 0.016 | [3] 0.05 | [4] 0.022 | Nexturastat A -0.035 | vemurafenib 0.002 | [5] 0.013 | [6] -0.028 | givinostat -0.031 | barasertib 0.012

RSL1D1 (UniProt O76021)
inactive: [1] -0.019 | [2] 0.039 | [3] -0.155 | [4] -0.148 | Nexturastat A 0.256 | vemurafenib -0.126 | [5] -0.137 | [6] 0.15 | givinostat 0.087 | barasertib -0.167

SCAF8 isoform 2 (UniProt Q9UPN6)
inactive: [1] 0.048 | [2] 0.002 | [3] -0.03 | [4] 0.076 | Nexturastat A 0 | vemurafenib -0.001 | [5] 0.004 | [6] -0.013 | givinostat 0.038 | barasertib 0.067

SCYL2 (UniProt Q6P3W7)
inactive: [1] -0.039 | [2] -0.029 | [3] -0.004 | [4] 0.029 | Nexturastat A -0.031 | vemurafenib 0.023 | [5] 0.031 | [6] -0.047 | givinostat 0.053 | barasertib 0.013

SAP30BP (UniProt Q9UHR5)
inactive: [1] -0.04 | [2] 0.046 | [3] -0.003 | [4] -0.025 | Nexturastat A -0.059 | vemurafenib -0.011 | [5] -0.025 | [6] -0.008 | givinostat 0.038 | barasertib 0.014

SCAF11 (UniProt Q99590)
inactive: [1] -0.089 | [2] 0.154 | [3] -0.079 | [4] -0.275 | Nexturastat A 0.003 | vemurafenib -0.158 | [5] -0.031 | [6] 0.035 | givinostat -0.034 | barasertib 0.165

Two successive records from above, quoted:
SAP30BP (UniProt Q9UHR5)
inactive: [1] -0.04 | [2] 0.046 | [3] -0.003 | [4] -0.025 | Nexturastat A -0.059 | vemurafenib -0.011 | [5] -0.025 | [6] -0.008 | givinostat 0.038 | barasertib 0.014

SCAF11 (UniProt Q99590)
inactive: [1] -0.089 | [2] 0.154 | [3] -0.079 | [4] -0.275 | Nexturastat A 0.003 | vemurafenib -0.158 | [5] -0.031 | [6] 0.035 | givinostat -0.034 | barasertib 0.165

Further results.

S100P (UniProt P25815)
inactive: [1] -0.069 | [2] -0.029 | [3] 0.087 | [4] 0.01 | Nexturastat A -0.017 | vemurafenib 0.224 | [5] -0.004 | [6] 0.043 | givinostat -0.071 | barasertib 0.133

SCLY (UniProt Q96I15)
inactive: [1] -0.009 | [2] 0.027 | [3] 0 | [4] -0.003 | Nexturastat A -0.054 | vemurafenib -0.002 | [5] 0.011 | [6] -0.025 | givinostat 0.016 | barasertib -0.015

RWDD1 (UniProt Q9H446)
inactive: [1] -0.028 | [2] 0.013 | [3] 0.028 | [4] 0.044 | Nexturastat A -0.059 | vemurafenib 0.003 | [5] 0.071 | [6] -0.019 | givinostat -0.019 | barasertib 0.041

SCARB2 (UniProt Q14108)
inactive: [1] -0.044 | [2] 0.05 | [3] 0.01 | [4] -0.003 | Nexturastat A -0.009 | vemurafenib 0.116 | [5] 0.069 | [6] -0.034 | givinostat -0.037 | barasertib -0.031

RTN4 (UniProt Q9NQC3)
inactive: [1] 0.006 | [2] 0.027 | [3] 0.069 | [4] 0.014 | Nexturastat A -0.057 | vemurafenib -0.014 | [5] 0.066 | [6] -0.126 | givinostat 0.022 | barasertib -0.025
